Measurements reported in PubChem BioAssay AID1224830 (NIAID, 2016)
Purpose: 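Host factors that control LPS-induced TNF expression in human macrophages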 (primary screen). Cell system: human THP-1 monocytic leukaemia cells, TNF dual-luciferase reporter clone, PMA-differentiated to macrophage-like cells. Reagents: siRNA pool against human genes, 50 nM. Timing: LPS for 4 h, given about 3 days after siRNA transfection. Treatment: bacterial LPS (TLR4 ligand), 10 ng/ml. Read-out: 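Ratio of firefly to renilla light, scaled to the plate median and expressed as a robust z-score per replicate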. Direction: TNF reporter robust z-score: higher = stronger TNF reporter response to LPS. Call rule: 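Each well counts as active if its z-score is over 2.8 or under -1.5; controls are left without a call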.
The whole screen tested about 18,000 reagents; this is an unselected part. About 2,900 of all reagents (16%) count as active. 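Calls are made per well; low scores hint the gene aids the LPS response, high scores that it dampens it.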 Entries without a mark were called inactive. Repeated entries: four replicate wells of each siRNA pool.

What did the screen give for LDLRAP1 (GeneID 26119)?
TNF reporter robust z-score: -0.26

What is on record for LDLRAP1 (GeneID 26119)?
TNF reporter robust z-score: -0.84

How did the screen score LDLRAP1 (GeneID 26119)?
TNF reporter robust z-score: -0.4

With CBY2 (GeneID 220082), what does the deposit list?
TNF reporter robust z-score: 0.3

With CBY2 (GeneID 220082), what does the deposit list?
TNF reporter robust z-score: 1.44

How did the screen score CBY2 (GeneID 220082)?
TNF reporter robust z-score: 0.9

For CBY2 (GeneID 220082), what was measured?
TNF reporter robust z-score: 0.53

For CCDC88C (GeneID 440193), how do the results read?
TNF reporter robust z-score: 0.64

With CCDC88C (GeneID 440193), what does the deposit list?
TNF reporter robust z-score: -0.21

With CCDC88C (GeneID 440193), how do the results read?
TNF reporter robust z-score: 0.03

What did the screen give for CCDC88C (GeneID 440193)?
TNF reporter robust z-score: 0.34

What did the screen give for CABYR (GeneID 26256)?
TNF reporter robust z-score: -0.54

For CABYR (GeneID 26256), what does the deposit list?
TNF reporter robust z-score: -0.77

For CABYR (GeneID 26256), what was measured?
TNF reporter robust z-score: -1.16

What is on record for CABYR (GeneID 26256)?
TNF reporter robust z-score: -1.25

With BPIFB4 (GeneID 149954), what does the deposit list?
TNF reporter robust z-score: -1.22

Which result is listed for BPIFB4 (GeneID 149954)?
TNF reporter robust z-score: -1.6 (active)

With BPIFB4 (GeneID 149954), how do the results read?
TNF reporter robust z-score: -1.34

For BPIFB4 (GeneID 149954), what was measured?
TNF reporter robust z-score: -1.19

With CACNA1S (GeneID 779), how do the results read?
TNF reporter robust z-score: 0

With CACNA1S (GeneID 779), what does the deposit list?
TNF reporter robust z-score: -0.44

What did the screen give for CACNA1S (GeneID 779)?
TNF reporter robust z-score: 0.09

For CACNA1S (GeneID 779), how do the results read?
TNF reporter robust z-score: -1

How did the screen score DMP1 (GeneID 1758)?
TNF reporter robust z-score: -0.52

What is on record for DMP1 (GeneID 1758)?
TNF reporter robust z-score: 0.09

For DMP1 (GeneID 1758), what does the deposit list?
TNF reporter robust z-score: -0.18

How did the screen score DMP1 (GeneID 1758)?
TNF reporter robust z-score: 0.82

For GRIK1 (GeneID 2897), how do the results read?
TNF reporter robust z-score: 1.06

For GRIK1 (GeneID 2897), how do the results read?
TNF reporter robust z-score: 1.21

Which result is listed for GRIK1 (GeneID 2897)?
TNF reporter robust z-score: -0.09

For GRIK1 (GeneID 2897), what was measured?
TNF reporter robust z-score: 2.28

With CDCP1 (GeneID 64866), what was measured?
TNF reporter robust z-score: 0.34

With CDCP1 (GeneID 64866), what was measured?
TNF reporter robust z-score: 0.11

What did the screen give for CDCP1 (GeneID 64866)?
TNF reporter robust z-score: -0.01

Entries listed so far whose gene name starts with G or g (4):
GRIK1 (GeneID 2897) | TNF reporter robust z-score: 1.06
GRIK1 (GeneID 2897) | TNF reporter robust z-score: 1.21
GRIK1 (GeneID 2897) | TNF reporter robust z-score: -0.09
GRIK1 (GeneID 2897) | TNF reporter robust z-score: 2.28
